Assay results: patent US11008293B2, “5-carboxamide-2-thiobarbituric acids and use thereof as medicaments” (FONDAZIONE ISTITUTO ITALIANO DI TECNOLOGIA, priority 2017, dated 2021)
At least one structure is not confirmed: it was looked up by name or label, or the drawing left a doubt.

Experiments:
[1] = test system: DNA; experiment: DNA binding properties by UV titrations; conditions: nucleic acid alone
[2] = test system: topo II; experiment: Standard cleavage assay (cleavage complex, formation of linear DNA); type: biochemical; conditions: compound concentration at which the formation of linear DNA was observed

## COc1cccc(NC(=O)c2c(O)n(-c3ccccc3)c(=S)n(-c3ccccc3)c2=O)c1
[1]
  DNA binding: NO
[2]
  Cleavage complex: 100 µM

## O=C(Nc1cccc(O)c1)c1c(O)n(-c2ccccc2)c(=S)n(-c2ccccc2)c1=O
[1]
  DNA binding: NO
[2]
  Cleavage complex: NO

## O=C(Nc1ccc(O)cc1)c1c(O)n(-c2ccccc2)c(=S)n(-c2ccccc2)c1=O
[1]
  DNA binding: NO
[2]
  Cleavage complex: 200 µM

## COc1cc(NC(=O)c2c(O)n(-c3ccccc3)c(=S)n(-c3ccccc3)c2=O)cc(OC)c1O
[1]
  DNA binding: NO
[2]
  Cleavage complex: 200 µM
